Source: article PMC6265295
These are yes or no findings as the source states them, for the method shown. Binding seen in cells or lysates may run through a third protein. Some entries that bind do so weakly or less than the wild type. Sequences can lack the tags named with a protein.

Amino acid sequences for entries named in this document (tags omitted).
UniProt Q15286: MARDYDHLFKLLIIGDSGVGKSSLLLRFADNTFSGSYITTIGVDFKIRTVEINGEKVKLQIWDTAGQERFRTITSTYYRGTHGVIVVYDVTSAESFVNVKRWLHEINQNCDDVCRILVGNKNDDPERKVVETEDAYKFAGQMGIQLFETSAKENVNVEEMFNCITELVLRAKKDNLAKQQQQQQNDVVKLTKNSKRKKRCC

Molecular target: T1, GFP-PODXL (UniProt Q28645)
T1 sequence: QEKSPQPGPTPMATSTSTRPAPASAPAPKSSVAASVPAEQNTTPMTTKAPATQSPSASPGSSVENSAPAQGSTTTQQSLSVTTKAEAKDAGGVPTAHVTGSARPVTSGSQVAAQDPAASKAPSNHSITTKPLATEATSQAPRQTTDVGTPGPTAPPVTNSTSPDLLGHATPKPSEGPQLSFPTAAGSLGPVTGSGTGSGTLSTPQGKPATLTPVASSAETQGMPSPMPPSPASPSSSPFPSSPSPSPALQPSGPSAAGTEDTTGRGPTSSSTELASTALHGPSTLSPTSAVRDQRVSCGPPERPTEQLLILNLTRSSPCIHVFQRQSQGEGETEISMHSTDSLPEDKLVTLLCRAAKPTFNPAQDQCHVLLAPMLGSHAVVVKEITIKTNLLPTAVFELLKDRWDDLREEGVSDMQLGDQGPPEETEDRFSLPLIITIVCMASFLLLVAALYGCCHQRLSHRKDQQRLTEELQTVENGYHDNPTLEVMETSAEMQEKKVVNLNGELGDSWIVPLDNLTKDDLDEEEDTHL
Assay: co-IP; GFP-tagged proteins were immunoprecipitated from lysates of transfected H1299 cells (p53-/- or p53R273H) with an anti-GFP antibody conjugated to magnetic beads. Partners were detected by western blotting.

Q: How did the binding turn out when “Rab35, endogenous (from UniProt Q15286 1-201)” was run?
A: binds
